The values below come from PMC5253655.

Where a chain is given by its changes, count along the chain named. These are yes or no findings as the source states them, for the method shown. Binding seen in cells or lysates may run through a third protein. For part of these data: A result given as binding can be weak or reduced; the word gives no strength. Tags and fused reporters may be left off the sequences shown.

Holding throughout (assay): co-IP; Flag immunoprecipitation (anti-Flag antibody or normal mouse serum, Protein G Sepharose) from metaphase-arrested Xenopus CSF egg extracts expressing 2xFlag-huWdr8 constructs from added mRNA; 23 °C; washes TBS-T and TBS; Western blot
A general note: In western blotting, separated proteins are transferred to a membrane and probed.

One assay deals with T1, 2xFlag-196/197AA (human) (UniProt Q9P2S5).
T1 sequence: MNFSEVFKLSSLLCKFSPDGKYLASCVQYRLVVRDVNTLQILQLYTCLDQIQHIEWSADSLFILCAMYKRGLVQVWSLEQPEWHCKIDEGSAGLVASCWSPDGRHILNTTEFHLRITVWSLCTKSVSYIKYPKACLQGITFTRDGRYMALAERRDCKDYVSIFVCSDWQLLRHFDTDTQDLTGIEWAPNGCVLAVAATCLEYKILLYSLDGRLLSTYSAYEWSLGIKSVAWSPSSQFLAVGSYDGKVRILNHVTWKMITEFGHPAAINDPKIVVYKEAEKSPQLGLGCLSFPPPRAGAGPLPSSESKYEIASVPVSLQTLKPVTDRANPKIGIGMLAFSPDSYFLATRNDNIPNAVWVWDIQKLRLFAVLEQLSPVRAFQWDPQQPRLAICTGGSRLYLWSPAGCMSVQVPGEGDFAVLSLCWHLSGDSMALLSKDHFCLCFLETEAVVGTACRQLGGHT

In a further assay the target is T2, 2xFlag-359/360AA (human) (UniProt Q9P2S5).
T2 sequence: T1 sequence with A196W, A197D, W359A, D360A

For assay [1], the target named is T3, 2xFlag-huWdr8 wild-type (human) (UniProt Q9P2S5).
T3 sequence: T1 sequence with A196W, A197D

Turning to SSX2IP, the binding result is given as “no binding” in the assay with 2xFlag-196/197AA (human), “no binding” in the assay with 2xFlag-359/360AA (human) and “binds” in assay [1].
